In the supplement of paper PMC10398353:
Counter-ions that a name gives are not always drawn. ± gives the standard deviation of the averaged measurements. The list shows a part of the results. This is a noisy data set.

Test system: Salmonella enterica serovar Typhimurium ST313 D23580
Test: normalized bacterial growth (OD600 20 h minus 0 h, interquartile-mean normalized) (fraction of plate interquartile mean); higher = more bacterial growth (less inhibition)
Conditions: LPM (pH 5.8, low phosphate, low Mg2+), concentration: 10 µM, temperature: 37 °C

SMILES | normalized bacterial growth
CC1C2Cc3ccc(O)cc3C1(C)CCN2CC1CC1 (single isomer, unassigned; (+)) [(+)-Cyclazocine] | 0.987
CC(C)=CCC[C@]1(C)C=Cc2c(O)c3c(c(CC=C(C)C)c2O1)O[C@]12C(=C[C@@H]4C[C@H]1C(C)(C)O[C@@]2(C/C=C(/C)C(=O)O)C4=O)C3=O | 1 ± 0.096
NCCc1cc(O)c(O)cc1O | 0.735
C#C[C@]1(O)CC[C@H]2[C@@H]3CCC4=Cc5nc6nc7ccccc7n6cc5C[C@]4(C)[C@H]3CC[C@@]21C | 1.27
C=CCN(C1=NCCN1)c1c(Cl)cccc1Cl [Alinidine] | 0.943
CC[C@@]1(O)C(=O)OCc2c1cc1n(c2=O)Cc2cc3ccccc3nc2-1 [(S)-(+)-Camptothecin] | 0.951
CC[C@@]1(O)C(=O)OCc2c1cc1n(c2=O)Cc2cc3ccccc3nc2-1 | 0.888
N#Cc1nn(-c2c(Cl)cc(C(F)(F)F)cc2Cl)c(N)c1[S+]([O-])C(F)(F)F (stereo unspecified) | 0.824
O=C1C[C@@H]2OCC=C3CN4CC[C@]56c7ccccc7N1[C@H]5[C@H]2[C@H]3C[C@H]46 | 1.07 ± 0.058
CCCCCCCCCc1ccc(O)cc1 | 1.16
C[C@H]1C/C=C/[C@H]2[C@@H]3O[C@]3(C)[C@@H](C)[C@H]3[C@H](Cc4ccccc4)NC(=O)[C@]32OC(=O)O/C=C/[C@@](C)(O)C1=O | 0.89
COc1ccc2[nH]cc(CCN)c2c1 [O-Methylserotonin hydrochloride] | 1.13
Cc1ncc(CNC(=O)N(CCCl)N=O)c(N)n1 [Nimustine hydrochloride] | 1.16
CCC12C=CCN3CC[C@@]4(c5ccc(OC)cc5N(C)[C@H]4[C@@](O)(C(=O)OC)[C@@H]1OC(C)=O)[C@@H]32 (stereo partly specified) | 0.784 ± 0.045
C[C@H]1CCC/C=C/[C@@H]2C[C@H](O)C[C@H]2[C@H](O)/C=C/C(=O)O1 | 0.948
CN1CCCCC1c1ccc(-c2cccnc2)nc1 (stereo unspecified) | 1.1
C[C@@H]1C[C@H]2CC[C@H](O2)[C@H](C)C(=O)O[C@@H](C)C[C@@H]2CC[C@@H](O2)[C@@H](C)C(=O)O[C@H](C)C[C@H]2CC[C@@H](O2)[C@H](C)C(=O)O[C@@H](C)C[C@@H]2CC[C@@H](O2)[C@@H](C)C(=O)O1 | 0.869
CN1C[C@@H](NS(=O)(=O)N(C)C)C[C@@H]2c3cccc4c3c(cn4C)C[C@H]21 [Mesulergine hydrochloride] | 0.905
C[N+](C)(C)CC#CCOC(=O)Nc1cccc(Cl)c1 | 1.17
CC[C@@H](C)C(=O)O[C@H]1[C@H](O)[C@H]2[C@@H](CN3C[C@@H](C)CC[C@H]3[C@@]2(C)O)[C@@H]2C[C@]34O[C@]5(O)[C@@H](OC(=O)[C@](C)(O)[C@@H](C)O)CC[C@@]3(C)[C@@H]5[C@@H](OC(C)=O)[C@@H](OC(C)=O)[C@H]4[C@@]21O (stereo in doubt) | 1.07
CC1=C(O)C(=O)C=C2C1=CC=C1[C@@]2(C)CC[C@@]2(C)[C@@H]3C[C@](C)(C(=O)O)CC[C@]3(C)CC[C@]12C | 1.05
CC(=O)Oc1ccc(/C=C/c2cc(OC(C)=O)cc(OC(C)=O)c2)cc1 | 0.979
N#C/C(=C\c1ccc(O)cc1)C(=O)O [alpha-CYANO-4-HYDROXYCINNAMIC ACID] | 1.03
Oc1cccc2cccnc12 | 0.421

Shown as tab-separated lines: entries from further up.
SMILES	normalized bacterial growth
CC1C2Cc3ccc(O)cc3C1(C)CCN2CC1CC1 (single isomer, unassigned; (+)) [(+)-Cyclazocine]	0.987
CC(C)=CCC[C@]1(C)C=Cc2c(O)c3c(c(CC=C(C)C)c2O1)O[C@]12C(=C[C@@H]4C[C@H]1C(C)(C)O[C@@]2(C/C=C(/C)C(=O)O)C4=O)C3=O	1 ± 0.096
NCCc1cc(O)c(O)cc1O	0.735
C#C[C@]1(O)CC[C@H]2[C@@H]3CCC4=Cc5nc6nc7ccccc7n6cc5C[C@]4(C)[C@H]3CC[C@@]21C	1.27
C=CCN(C1=NCCN1)c1c(Cl)cccc1Cl [Alinidine]	0.943
CC[C@@]1(O)C(=O)OCc2c1cc1n(c2=O)Cc2cc3ccccc3nc2-1 [(S)-(+)-Camptothecin]	0.951
CC[C@@]1(O)C(=O)OCc2c1cc1n(c2=O)Cc2cc3ccccc3nc2-1	0.888
N#Cc1nn(-c2c(Cl)cc(C(F)(F)F)cc2Cl)c(N)c1[S+]([O-])C(F)(F)F (stereo unspecified)	0.824
O=C1C[C@@H]2OCC=C3CN4CC[C@]56c7ccccc7N1[C@H]5[C@H]2[C@H]3C[C@H]46	1.07 ± 0.058
CCCCCCCCCc1ccc(O)cc1	1.16
C[C@H]1C/C=C/[C@H]2[C@@H]3O[C@]3(C)[C@@H](C)[C@H]3[C@H](Cc4ccccc4)NC(=O)[C@]32OC(=O)O/C=C/[C@@](C)(O)C1=O	0.89
COc1ccc2[nH]cc(CCN)c2c1 [O-Methylserotonin hydrochloride]	1.13
Cc1ncc(CNC(=O)N(CCCl)N=O)c(N)n1 [Nimustine hydrochloride]	1.16
CCC12C=CCN3CC[C@@]4(c5ccc(OC)cc5N(C)[C@H]4[C@@](O)(C(=O)OC)[C@@H]1OC(C)=O)[C@@H]32 (stereo partly specified)	0.784 ± 0.045
C[C@H]1CCC/C=C/[C@@H]2C[C@H](O)C[C@H]2[C@H](O)/C=C/C(=O)O1	0.948
CN1CCCCC1c1ccc(-c2cccnc2)nc1 (stereo unspecified)	1.1

Fetched one by one from the entries so far, two records:
SMILES | normalized bacterial growth
CC[C@@]1(O)C(=O)OCc2c1cc1n(c2=O)Cc2cc3ccccc3nc2-1 | 0.888
C[C@@H]1C[C@H]2CC[C@H](O2)[C@H](C)C(=O)O[C@@H](C)C[C@@H]2CC[C@@H](O2)[C@@H](C)C(=O)O[C@H](C)C[C@H]2CC[C@@H](O2)[C@H](C)C(=O)O[C@@H](C)C[C@@H]2CC[C@@H](O2)[C@@H](C)C(=O)O1 | 0.869

Continuation.

SMILES | normalized bacterial growth
N.N.[Cl][Pt][Cl] [Cisplatin] | 1
N.N.[Cl][Pt][Cl] | 1.11
CCCN1C[C@H](CSC)C[C@@H]2c3cccc4[nH]cc(c34)C[C@H]21 [Pergolide methanesulfonate] | 0.826
CCCCc1ccc(C(=O)O)nc1 [Fusaric acid] | 0.247
CC(C)N1C(=O)c2ccccc2NS1(=O)=O | 1.01
Oc1ccc2c3c1O[C@H]1c4[nH]c5c(c4C[C@@]4(O)[C@@H](C2)N(CC2CC2)CC[C@]314)C[C@@]1(O)[C@H]2Cc3ccc(O)c4c3[C@@]1(CCN2CC1CC1)[C@H]5O4 [nor-Binaltorphimine dihydrochloride] | 0.706
CCCCCCCCCCCCCC(=O)O[C@@H]1[C@@H](C)[C@@]2(O)[C@@H](C=C(CO)C[C@]3(O)C(=O)C(C)=C[C@@H]23)[C@@H]2C(C)(C)[C@]12OC(C)=O | 1.08
COc1ccc(C(=O)N2CCCC2=O)cc1 [Aniracetam] | 1.07
COc1nc(NC(C)C)nc(NC(C)C)n1 | 0.881
C=CCN1CCc2cccc3c2[C@H]1Cc1ccc(O)c(O)c1-3 [R(-)-N-Allylnorapomorphine hydrobromide] | 0.514
Cc1[nH]c2ccc(O)cc2c1CCN [2-Methyl-5-hydroxytryptamine maleate] | 1.06
CCS(=O)(=O)Nc1cccc(C(=C2CCCCC2)c2cnc[nH]2)c1 | 0.916
NCC(O)c1cc(O)c(O)cc1F (stereo unspecified) [6-Fluoronorepinephrine hydrochloride] | 0.65
CC[C@@H](C(N)=O)N1CCCC1=O [Levetiracetam] | 1.07
COC(=O)[C@@H]1C[C@H](OC(C)=O)C(=O)[C@H]2[C@@]1(C)CC[C@H]1C(=O)O[C@H](c3ccoc3)C[C@]21C | 0.989
O=C(O)CCCc1ccc(N(CCCl)CCCl)cc1 [Chlorambucil] | 0.902
CC[C@@]1(O)C[C@H](O)c2c(cc3c(c2O)C(=O)c2c(O)ccc(O)c2C3=O)[C@H]1C(=O)OC | 0.916
CC(C)Oc1cccnc1N(C)C1CCN(Cc2ccc(I)cc2)CC1 [RBI 257 maleate salt] | 0.9
Nc1ccncc1 [4-Aminopyridine] | 1.38
COc1ccc(-n2nc(C(F)(F)F)cc2-c2ccc(Cl)cc2)cc1 | 0.773
O=C(O)CNCP(=O)(O)O | 0.928
C[N+]1(C)CCOC(O)(c2ccc(-c3ccc(C4(O)C[N+](C)(C)CCO4)cc3)cc2)C1 (stereo unspecified) [Hemicholinium-3] | 0.877
CN(C)Cc1c[nH]c2ccccc12 | 1.11
CO[C@H]1CC=C2CCN3CCC4=C(CC(=O)OC4)[C@]23C1 [Dihydro-beta-erythroidine hydrobromide] | 0.995

SMILES | normalized bacterial growth
CC[C@H](C)[C@H]1O[C@]2(C=C[C@@H]1C)C[C@@H]1C[C@@H](C/C=C(\C)[C@@H](O[C@H]3C[C@H](OC)[C@@H](O[C@H]4C[C@H](OC)[C@@H](O)[C@H](C)O4)[C@H](C)O3)[C@@H](C)/C=C/C=C3\CO[C@@H]4[C@H](O)C(C)=C[C@@H](C(=O)O1)[C@]34O)O2.CO[C@H]1C[C@H](O[C@H]2[C@H](C)O[C@@H](O[C@@H]3/C(C)=C/C[C@@H]4C[C@@H](C[C@]5(C=C[C@H](C)[C@@H](C(C)C)O5)O4)OC(=O)[C@@H]4C=C(C)[C@@H](O)[C@H]5OC/C(=C\C=C\[C@@H]3C)[C@]54O)C[C@@H]2OC)O[C@@H](C)[C@@H]1O [Avermectin B1] | 1.25
CC[C@H](C)[C@H]1O[C@]2(C=C[C@@H]1C)C[C@@H]1C[C@@H](C/C=C(\C)[C@@H](O[C@H]3C[C@H](OC)[C@@H](O[C@H]4C[C@H](OC)[C@@H](O)[C@H](C)O4)[C@H](C)O3)[C@@H](C)/C=C/C=C3\CO[C@@H]4[C@H](O)C(C)=C[C@@H](C(=O)O1)[C@]34O)O2.CO[C@H]1C[C@H](O[C@H]2[C@H](C)O[C@@H](O[C@@H]3/C(C)=C/C[C@@H]4C[C@@H](C[C@]5(C=C[C@H](C)[C@@H](C(C)C)O5)O4)OC(=O)[C@@H]4C=C(C)[C@@H](O)[C@H]5OC/C(=C\C=C\[C@@H]3C)[C@]54O)C[C@@H]2OC)O[C@@H](C)[C@@H]1O | 1.37
COc1cc([C@@H]2c3cc4c(cc3[C@H](OC(C)=O)[C@H]3COC(=O)[C@H]23)OCO4)cc(OC)c1OC | 0.94
COc1cc(C=C(C#N)C#N)cc(O)c1O [Tyrphostin AG 34] | 0.886
C[C@]12CCC(=O)C=C1CC[C@@H]1[C@@H]2C(=O)C[C@]2(C)C(=O)CC[C@@H]12 [Adrenosterone] | 0.823
NC(=O)CN1CC(O)CC1=O (stereo unspecified) [Oxiracetam] | 1.03
CC(C)[C@@]1(O)[C@@H](OC(=O)c2ccc[nH]2)[C@@]2(O)[C@@]3(C)C[C@]4(O)O[C@@]5([C@H](O)[C@@H](C)CC[C@]35O)[C@@]2(O)[C@@]14C | 1.41
COc1ccn(C)c(=O)c1C#N [Ricinine] | 0.843
NC(=O)c1ccc(OCC(O)CN2CC=C(c3ccc(F)cc3)CC2)cc1 (stereo unspecified) | 0.933
CC(C)=CC1C(C(=O)OCc2cccc(Oc3ccccc3)c2)C1(C)C (stereo unspecified) | 1.04
C[N+](C)(C)CC#CCN1CCCC1=O [Oxotremorine methiodide] | 1.31
C[CH2][Hg][S]c1ccccc1C(=O)[O-].[Na+] | 0.128
COc1ccc(CNC(=O)/C=C/c2ccc3[nH]cc(CCN(C)C)c3c2)cc1 | 0.685
CC1(C)C(=O)C=C[C@]2(C)[C@H]3CC[C@@]4(C)[C@H](c5ccoc5)OC(=O)[C@H]5O[C@]54[C@]3(C)[C@H](O)C[C@@H]12 | 0.948
ClC1=C(Cl)C2(Cl)C3C(Cl)C=CC3C1(Cl)C2(Cl)Cl (stereo unspecified) | 1.26
O=C1C=C2C=C[C@@H]3C[C@@]2(O1)[C@H]1CCCCN31 [Securinine] | 1.12
O=C1C=C2C=C[C@@H]3C[C@@]2(O1)[C@H]1CCCCN31 | 1.04
CC1Cc2cc3c(cc2C(c2ccc(N)cc2)=NN1)OCO3 (stereo unspecified) | 1.24
CC(=O)C1=C(O)[C@@H]2[C@H]3c4c[nH]c5cccc(c45)C[C@H]3C(C)(C)N2C1=O | 0.994
CN1CCC(c2c[nH]c3ccc(O)cc23)CC1 | 1.04
COc1ccc2[nH]c3c(c2c1)CCN=C3C [Methoxy-6-harmalan] | 0.705
N#Cc1c(Cl)cccc1Cl | 0.903
O[C@H]1[C@H]2[C@H](O)CCCN2C[C@H]1O | 0.914
